Biological target: Synthetic beta-amyloid peptide 1-40 (Homo sapiens, UniProt P05067)
Test: Seprion assay screen for compounds that affect amyloid aggregation
Assay type: biochemical
Details: test compounds at 1 mM; peptide 2.8 μg/ml, 30 min at 37° C.; Seprion assay signal

Amino acid sequences for entries named in this document (tags omitted). Residues count along the entry.
UniProt P05067, 672-711: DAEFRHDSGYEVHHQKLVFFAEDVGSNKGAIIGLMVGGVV

## CSc1ccc2c(c1)N(CCC1CCCCN1C)c1ccccc1S2.Cl (stereo not shown) [Thioridazine, thioridazine]
  Relative aggregation compared to 'no compound' aggregation control: 11.9%

— patent US8383617B2, “Treatment of protein aggregation diseases” (priority 2007, dated 2013)
